The values are deposited in ChEMBL (CHEMBL3988442, “University of Dundee, Small-Polar-MMV Screening Library” (2021)).

The chains behind the UniProt entries cited, without tags or fusion partners.
UniProt I6X8D2, whole entry: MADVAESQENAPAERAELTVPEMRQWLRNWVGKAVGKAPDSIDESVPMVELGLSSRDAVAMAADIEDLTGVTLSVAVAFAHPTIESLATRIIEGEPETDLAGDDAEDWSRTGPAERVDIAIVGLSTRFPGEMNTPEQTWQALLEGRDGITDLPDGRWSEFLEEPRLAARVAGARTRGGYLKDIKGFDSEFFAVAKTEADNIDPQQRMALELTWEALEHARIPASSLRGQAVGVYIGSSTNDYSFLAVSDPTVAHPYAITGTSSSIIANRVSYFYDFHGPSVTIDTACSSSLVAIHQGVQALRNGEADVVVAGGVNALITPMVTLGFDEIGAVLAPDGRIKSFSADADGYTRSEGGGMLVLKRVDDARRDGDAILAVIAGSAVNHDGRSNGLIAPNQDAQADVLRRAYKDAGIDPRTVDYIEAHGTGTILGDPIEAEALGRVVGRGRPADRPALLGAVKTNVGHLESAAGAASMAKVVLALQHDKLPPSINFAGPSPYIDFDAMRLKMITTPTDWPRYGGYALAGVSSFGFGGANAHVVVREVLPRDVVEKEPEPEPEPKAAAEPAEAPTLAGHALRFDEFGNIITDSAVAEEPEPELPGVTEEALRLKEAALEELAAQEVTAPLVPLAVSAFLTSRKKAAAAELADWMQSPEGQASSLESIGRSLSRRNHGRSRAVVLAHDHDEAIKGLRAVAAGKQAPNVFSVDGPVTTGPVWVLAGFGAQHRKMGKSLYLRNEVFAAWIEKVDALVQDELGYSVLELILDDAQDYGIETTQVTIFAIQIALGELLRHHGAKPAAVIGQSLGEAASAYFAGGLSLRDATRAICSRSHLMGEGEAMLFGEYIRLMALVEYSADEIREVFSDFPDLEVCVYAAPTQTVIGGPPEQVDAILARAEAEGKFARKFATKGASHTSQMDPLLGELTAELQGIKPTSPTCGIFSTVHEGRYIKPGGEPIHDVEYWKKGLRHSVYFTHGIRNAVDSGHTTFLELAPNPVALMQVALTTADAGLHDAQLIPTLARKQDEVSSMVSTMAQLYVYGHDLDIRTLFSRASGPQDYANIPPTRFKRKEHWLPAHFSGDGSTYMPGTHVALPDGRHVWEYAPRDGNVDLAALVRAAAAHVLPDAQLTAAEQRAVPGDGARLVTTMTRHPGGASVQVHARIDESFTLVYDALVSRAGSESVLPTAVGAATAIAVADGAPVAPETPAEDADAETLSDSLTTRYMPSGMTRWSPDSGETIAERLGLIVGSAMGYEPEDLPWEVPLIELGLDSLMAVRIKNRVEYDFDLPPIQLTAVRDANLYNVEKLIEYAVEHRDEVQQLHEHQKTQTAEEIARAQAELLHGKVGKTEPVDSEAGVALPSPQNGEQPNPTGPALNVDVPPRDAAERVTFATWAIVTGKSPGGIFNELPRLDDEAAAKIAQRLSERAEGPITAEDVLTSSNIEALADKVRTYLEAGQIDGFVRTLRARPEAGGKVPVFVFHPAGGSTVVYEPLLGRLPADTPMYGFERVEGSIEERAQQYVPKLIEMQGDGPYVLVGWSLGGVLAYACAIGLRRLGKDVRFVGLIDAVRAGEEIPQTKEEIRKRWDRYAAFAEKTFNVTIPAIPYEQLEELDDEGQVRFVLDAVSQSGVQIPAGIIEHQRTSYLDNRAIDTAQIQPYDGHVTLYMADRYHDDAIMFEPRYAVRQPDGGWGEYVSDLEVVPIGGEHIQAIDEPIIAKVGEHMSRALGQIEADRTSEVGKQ
UniProt P9WPC5, whole entry: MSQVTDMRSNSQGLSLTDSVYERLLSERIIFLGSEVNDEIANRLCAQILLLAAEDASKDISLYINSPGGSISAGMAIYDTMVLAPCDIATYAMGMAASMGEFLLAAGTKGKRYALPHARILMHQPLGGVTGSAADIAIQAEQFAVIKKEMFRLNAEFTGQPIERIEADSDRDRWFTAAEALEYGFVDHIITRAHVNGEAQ
UniProt P9WPC3, whole entry partner: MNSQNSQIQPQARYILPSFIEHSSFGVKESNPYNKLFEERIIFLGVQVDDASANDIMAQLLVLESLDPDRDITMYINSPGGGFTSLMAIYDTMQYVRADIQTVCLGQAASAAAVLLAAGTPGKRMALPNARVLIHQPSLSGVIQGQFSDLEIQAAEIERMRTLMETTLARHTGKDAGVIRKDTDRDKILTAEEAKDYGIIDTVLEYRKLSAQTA

A: 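Cell assay of Leishmania donovani living inside macrophages; the read-out is not stated. Compounds at 30 µM. Direction is inferred from retests: higher values go with stronger inhibition. Size under these conditions: about 69,000 compounds, about 1,000 of them at 50% or above in at least one test.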
B: 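Polyketide synthase Pks13, Mycobacterium tuberculosis (UniProt I6X8D2). Enzyme assay of the thioesterase domain of polyketide synthase 13; the read-out is not stated. Compounds at 30 µM. Higher reads as stronger inhibition (inferred from which compounds were picked for retests). Size under these conditions: about 67,000 compounds, about 300 of them at 50% or above in at least one test.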
C: 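ClpP1P2, Mycobacterium tuberculosis (UniProt P9WPC5 and UniProt P9WPC3). Protease assay of ClpP1P2, read by the AMC dye that it sets free. Tested at 50 µM. Higher reads as stronger inhibition, judged from the few compounds that gave an IC50. Most other retested compounds had strongly negative values. Size under these conditions: about 69,000 compounds, about 10 of them at 50% or above in at least one test.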
D: 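Whole-parasite assay of Trypanosoma brucei over 72 hours; the read-out is not stated. Compounds at 30 µM. The record gives no direction; compounds that gave an IC50 in retests scored well above the rest, so higher reads as stronger inhibition. Values scatter widely below zero; nearly all retest evidence comes from the higher of the two concentrations used. Of about 64,000 compounds tested this way, about 940 (1.5%) reached 50% or more in at least one test.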

Results are given as percent effect.
How 0% and 100% were set is not recorded. Most values in the screen are low, and negative values occur.
The compounds are a random part of those screened.

For Cn1cc(Cl)c(CN2CCn3nc(C(=O)Nc4ccccc4)cc3C2)n1 the result was A: -37.34%; B: -7.069%; C: 0.9099%; D: 15.36%.
For O=C(NC1CC1)C1CNCCN1C(=O)COc1ccc2c(c1)OCO2 (stereo not shown) the result was A: 9.514%; B: -19.07%; C: -17.8%; D: -4.518%.
For Cc1ncoc1C(=O)N1CC[C@@]2(C[C@H](NS(C)(=O)=O)CCO2)C1 the result was A: 16.5%; B: -5.446%; C: 4.514%; D: -127.6%.
For C[S+]([O-])CCCNC(=O)c1cc(Br)c2c(c1)OCCO2 (stereo not shown) the result was A: 4.926%; B: -8.218%; C: -10.31%; D: 16.08%.
For O=C(O)C(F)(F)F.O=C(O)C(F)(F)F.[H][C@@]12CN(c3ncccn3)C[C@]1([H])[C@@H]2CC(=O)Nc1cccnc1 the result was A: 19.1%; D: -0.1394%.
For O=C(c1cncc(NCC2COc3ccccc3C2)n1)N1CCCCC1 (stereo not shown) the result was A: 10.41%; B: 4.857%; C: -46.3%; D: -20.18%.
For CC(Cn1cccn1)NCc1nc(-c2ccsc2)no1 (stereo not shown) the result was A: -10.92%; B: -25.4%; C: -16.79%; D: -7.471%.
For CCCn1nc(C(=O)NCCc2nnc3n2CCC3)ccc1=O the result was A: 33.32%; B: -36.65%; C: 10.14%; D: -43.44%.
For Cl.c1csc(-c2noc(C3CNC3)n2)c1 the result was A: 36.33%; D: 23.37%.
For Cc1ncsc1CN1CC[C@H]2C(=O)N(c3ccccc3)CCO[C@H]2C1 the result was B: -21.45%; C: 8.414%.
For Cc1cc(C)n(Cc2cccc(C(=O)N(CCC#N)CCC#N)c2)n1 the result was A: 13.66%; B: 9.139%; C: -9.814%; D: -24.75%.
For O=S(=O)(NCc1ccccc1)N1CCCN(c2ccncc2)CC1 the result was A: -11.53%; B: -25.67%; C: 12.62%; D: -8.873%.
For O=C(NCCNC(=O)C1CCCCC1)NCCn1cccc1 the result was A: -5.725%; B: -13.51%; C: -11.97%; D: -26.99%.
For CN(C)C(=O)N1CCc2c(nnn2C)C1COCc1ccccc1 (stereo not shown) the result was A: 3.011%; B: -3.713%; C: 4.663%; D: 33.39%.
For O=C(CCn1c(=O)oc2ccccc21)NCC(O)c1ccccc1 (stereo not shown) the result was A: 50.97%; B: -4.434%; C: 6.507%; D: -13.24%.
For COc1cccc(OC)c1OCCN1C(=O)CCNC1=O the result was A: -11.79%; B: 7.822%; C: -3.286%; D: -37.38%.
For CC(C)[C@H]1COC(=O)N1CC(=O)N1CCN(C(=O)c2ccco2)CC1 the result was A: -17.79%; B: 4.971%; C: 1.091%.
For Cc1csc(CN2C[C@@H]3COC[C@]3(C(=O)NCc3ccco3)C2)n1 the result was B: -28.63%; C: 12.23%.
For Cc1cc(C(F)F)nn1C(C)C(=O)NCc1ncc[nH]1 (stereo not shown) the result was A: 43.47%; C: -12.65%; D: 2.442%.
For Cc1csc(N2CCCN(CCC(=O)NC(N)=O)CC2)n1 the result was A: 25.06%; B: -6.491%; C: -30.07%; D: -5.618%.
For CCn1nc(C)c(CNC(=O)NCC(C)(O)c2ccccc2)c1C (stereo not shown) the result was A: -13.53%; B: 19.08%; C: -9.052%; D: -44.16%.
For OC(CNC1CCOCC1)c1ccc(Cl)c(F)c1 (stereo not shown) the result was A: 9.683%; B: -6.476%; C: -6.852%; D: 3.847%.

2 of the entries, repeated:

SMILES	A	B	C	D
Cc1csc(N2CCCN(CCC(=O)NC(N)=O)CC2)n1	25.06%	-6.491%	-30.07%	-5.618%
C[S+]([O-])CCCNC(=O)c1cc(Br)c2c(c1)OCCO2 (stereo not shown)	4.926%	-8.218%	-10.31%	16.08%